Consider 2 substances from publication PMC7066533.

Sequences of proteins named here, by UniProt entry; tags and fusion partners are left off.
UniProt P41145: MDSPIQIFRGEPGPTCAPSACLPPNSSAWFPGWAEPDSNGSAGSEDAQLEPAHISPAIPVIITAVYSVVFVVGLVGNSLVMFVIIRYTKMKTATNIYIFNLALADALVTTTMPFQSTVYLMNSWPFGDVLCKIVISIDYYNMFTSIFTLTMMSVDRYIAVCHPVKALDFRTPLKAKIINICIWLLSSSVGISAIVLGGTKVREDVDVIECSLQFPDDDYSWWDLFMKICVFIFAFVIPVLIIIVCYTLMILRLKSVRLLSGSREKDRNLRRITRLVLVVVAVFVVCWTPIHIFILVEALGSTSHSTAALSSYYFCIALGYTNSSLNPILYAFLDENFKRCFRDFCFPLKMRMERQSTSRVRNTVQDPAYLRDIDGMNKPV
UniProt P32121: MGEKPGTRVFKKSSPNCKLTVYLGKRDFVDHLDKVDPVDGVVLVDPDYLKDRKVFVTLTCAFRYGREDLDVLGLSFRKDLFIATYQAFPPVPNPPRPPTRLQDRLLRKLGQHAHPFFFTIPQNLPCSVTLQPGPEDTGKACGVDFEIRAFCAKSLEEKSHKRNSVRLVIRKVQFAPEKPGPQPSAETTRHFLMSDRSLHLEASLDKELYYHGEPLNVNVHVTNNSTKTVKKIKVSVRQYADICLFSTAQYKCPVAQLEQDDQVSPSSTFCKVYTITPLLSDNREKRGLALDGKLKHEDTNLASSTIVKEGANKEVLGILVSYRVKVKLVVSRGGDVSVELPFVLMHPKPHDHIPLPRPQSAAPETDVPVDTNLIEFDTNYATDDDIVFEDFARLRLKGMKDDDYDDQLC

Assay [1] deals with hKOPr of the PathHunter U2OS cells (human) (UniProt P41145). The assay is described as follows: split reporter; DiscoveRx PathHunter eXpress β-arrestin2 enzyme complementation in U2OS cells; cells exposed to LOR17 (0–10 μM), 3 h at 37°C, chemiluminescence.
For assay [2] the target is unchanged. The assay is described as follows: split reporter; DiscoveRx PathHunter eXpress β-arrestin2 enzyme complementation in U2OS cells; cells exposed to U50,488 (0–10 μM), 3 h at 37°C, chemiluminescence.
Assay [3] addresses RLuc-tagged human KOPr (human) (UniProt P41145). Description: FRET or BRET; HEK-293 cells co-transfected with KOPr-RLuc (250 ng) and increasing mYFP-β-arrestin 2 (0–12 μg); cells exposed to U50,488 (1–10 μM), read 5–60 min; net BRET against vehicle. (In general: Bioluminescence resonance energy transfer reports proximity on the nanometre scale.)
For assay [4] the target is unchanged. The assay is described as follows: condition: only cells exposed to 1 and 10 μM LOR17 instead of U50,488; FRET or BRET; HEK-293 cells co-transfected with KOPr-RLuc (250 ng) and increasing mYFP-β-arrestin 2 (0–12 μg); cells exposed to LOR17 (1–10 μM), read 5–60 min; net BRET against vehicle.

These are yes or no findings as the source states them, for the method shown. Binding seen in cells or lysates may run through a third protein. Some entries that bind do so weakly or less than the wild type.

As to “enzyme acceptor-tagged β-arrestin2 fusion protein (from UniProt P32121 1-409)”, the values for the binding result in assay [1] and in assay [2] were “binds weakly” and “binds”, respectively.
“mYFP-β-arrestin 2 (from UniProt P32121 1-409)”: the binding result in assay [3] was “binds”; in assay [4] it was “no binding”.
